Protein sequences can lack the tags named with them. The exact form of at least one protein or probe is not confirmed. The comparison behind a weaker result is the experiment's own reference, which may not be listed here.
Target: T1, H-NS (UniProt P0ACF8)
T1 sequence (looked up): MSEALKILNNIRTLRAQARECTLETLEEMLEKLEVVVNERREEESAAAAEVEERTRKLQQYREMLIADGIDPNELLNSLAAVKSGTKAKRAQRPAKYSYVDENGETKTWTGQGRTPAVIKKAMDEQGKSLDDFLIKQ
Assay: EMSA
Details: 10 mM Tris-Cl pH 7.5, 10 mM MgCl2, 10 mM KCl, 100 mM NaCl, 0.5 mM DTT, 5% glycerol, 0.1% BSA, 1 mM spermidine, 25 °C, 5% PAGE in 1xTAE, recombinant protein, residues 1-137, protein details: 6xHis, label: none (GelRed stain), probe letters rebuilt from the primers and the …

AATAGTAGTACTCCTAACTGAGATATATTTGAATGAATACCTATAGGAAACCTCAATCGGTCAAAATTAGCCCAATAGATAAAAAGATAACCACACACGGAGTGATGTGGCTATCAGTCAATTACATTAAATATCATACAAAAATAAAATATCACTGATGTGACAACATCTATTTTCATTGATTTGATTCAATATAACAATAGATTGCAGTGGATTAACTTCCAGTTGCTTAAAAAATAAAGAAAAAAGTGCGGAAACAGGAGATTTTAAGTGATGTGTAAATTTATGAATGATTTTGTTTATTTATTTTGAAGAACATAAACCATTGTATTTTGTATGGATATGGTTAACTTAATGTTTATTATGATAATTAAGAATCACACTTACAATAACATCAATTAATAAATGGTTAATCATTTTTGATATATCGTAAGAATAATGTAGTTTTTAACACCATCCCTGGTATCTCAACTATCT (double strand) [fimE promoter]
binding result (MEP preincubated with H-NS (no change in mobility)): binds | binding result (MEcPP added after H-NS was bound to DNA (no inhibition)): binds | binding result (MEcPP preincubated with H-NS before DNA (concentration-dependent decrease)): binds more weakly | binding result (no metabolite, 240 nM H-NS, 30 nM DNA): binds

Source: PMC11582573, “An evolutionarily conserved metabolite inhibits biofilm formation in Escherichia coli K-12” (Nature Communications, 2024)
